Consider one substance from article PMC7419506, “KN3014, a piperidine-containing small compound, inhibits auto-secretion of IL-1β from PBMCs in a patient with Muckle–Wells syndrome” (Scientific Reports, 2020).

Protein sequences, listed by entry. Tags and fused reporters are not part of them. Lines headed by an entry give the natural chain unless they say otherwise; changes in a name come on top.
UniProt Q9ULZ3: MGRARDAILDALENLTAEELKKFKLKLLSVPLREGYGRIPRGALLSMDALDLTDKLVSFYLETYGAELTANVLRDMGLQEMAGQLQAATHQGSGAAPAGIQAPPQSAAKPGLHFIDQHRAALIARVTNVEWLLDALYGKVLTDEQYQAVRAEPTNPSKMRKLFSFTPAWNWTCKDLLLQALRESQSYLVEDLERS

The target in this assay is T1, full-length AIM2-Btn (UniProt O14862).
T1 sequence (chain, biotin): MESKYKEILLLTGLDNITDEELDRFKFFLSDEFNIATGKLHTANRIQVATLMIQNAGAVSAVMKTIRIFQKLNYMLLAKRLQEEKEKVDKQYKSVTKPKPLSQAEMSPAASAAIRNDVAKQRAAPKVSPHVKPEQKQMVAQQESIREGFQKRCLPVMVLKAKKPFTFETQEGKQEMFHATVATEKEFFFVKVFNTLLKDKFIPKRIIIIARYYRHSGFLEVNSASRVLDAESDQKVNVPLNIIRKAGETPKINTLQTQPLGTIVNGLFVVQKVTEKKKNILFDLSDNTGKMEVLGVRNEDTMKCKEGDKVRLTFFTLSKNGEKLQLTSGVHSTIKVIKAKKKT
The experiment in a line: AlphaScreen or HTRF; 100 ng of each synthesized protein in ALPHA buffer (100 mM Tris-HCl pH 8.0, 0.01% Tween 20, 1 mg/mL BSA); streptavidin donor beads, protein-A acceptor beads and 5 µg/mL anti-FLAG mAb M2; 25 °C, 24 h; with or without small compounds (KN3014, KN8311, KN1960, KN5330, KN7644, MCC950); no purification told. In general terms: In Alpha technology, singlet oxygen from a donor bead excites a nearby acceptor bead.

Results are given in words; binding and its absence hold for the method and conditions named. Binding can be weak; no strength is given.

Consider “N-terminal FLAG-tagged PYD of ASC (from UniProt Q9ULZ3) (domain or fragment)”, for which the binding entry is recorded as “binds”.
